Assay [1] deals with T1, 6xHis-SpvC (Salmonella enterica subsp. enterica serovar Typhimurium strain 14028s) (UniProt P0A2M9).
T1 sequence: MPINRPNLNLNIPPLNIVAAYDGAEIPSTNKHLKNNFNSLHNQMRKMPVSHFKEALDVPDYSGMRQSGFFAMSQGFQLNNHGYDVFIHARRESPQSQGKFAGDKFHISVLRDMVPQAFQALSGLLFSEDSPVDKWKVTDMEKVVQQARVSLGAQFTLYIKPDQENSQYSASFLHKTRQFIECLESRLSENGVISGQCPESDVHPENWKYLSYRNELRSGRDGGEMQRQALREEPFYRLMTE
Nature of the assay: condition: 50 μg recombinant protein with 50 μg extract in 200 μl; pull-down; 50 μg purified recombinant 6xHis-SpvC or GST-SpvC incubated with 50 μg total Arabidopsis protein extract, with or without 80 μg BSA, 30 min, 200 μl, 21°C, with Ni- or GTH-beads; beads washed 3 times; immunoblot with anti-MPK6, anti-MPK3 or anti-MPK4; only the target purified.

In assay [2] the target is T2, GST-SpvC (Salmonella enterica subsp. enterica serovar Typhimurium strain 14028s) (UniProt P0A2M9).
T2 sequence: T1 sequence
The description is as above.

In assay [3] the target is T3, YFPn-SpvC (Salmonella enterica subsp. enterica serovar Typhimurium strain 14028s) (UniProt P0A2M9).
T3 sequence: T1 sequence
Put plainly: split reporter; BiFC with YFPn and YFPc fusions co-expressed in Arabidopsis epidermal cells by particle bombardment together with p35S-mCherry; fluorescence observed 24-48 h after transformation by confocal microscopy; YFP-positive cells counted among mCherry-positive cells.

In assay [4] the target is T4, YFPc-SpvC (Salmonella enterica subsp. enterica serovar Typhimurium strain 14028s) (UniProt P0A2M9).
T4 sequence: T1 sequence
The description is as above.

No constants are given. Whether binding was seen depends on the method and setting. In cells and extracts the contact can be indirect. For some of these results: Where a sequence is shown, tags or fusion partners need not be part of it.

B1: Arabidopsis MPK3 (enzyme, UniProt Q39023 1-370)
chain: MNTGGGQYTDFPAVETHGGQFISYDIFGSLFEITSKYRPPIIPIGRGAYGIVCSVLDTETNELVAMKKIANAFDNHMDAKRTLREIKLLRHLDHENIIAIRDVVPPPLRRQFSDVYISTELMDTDLHQIIRSNQSLSEEHCQYFLYQLLRGLKYIHSANIIHRDLKPSNLLLNANCDLKICDFGLARPTSENDFMTEYVVTRWYRAPELLLNSSDYTAAIDVWSVGCIFMELMNRKPLFPGKDHVHQMRLLTELLGTPTESDLGFTHNEDAKRYIRQLPNFPRQPLAKLFSHVNPMAIDLVDRMLTFDPNRRITVEQALNHQYLAKLHDPNDEPICQKPFSFEFEQQPLDEEQIKEMIYQEAIALNPTYG
Consider B1, for which the binding result in assay [1] and in assay [2] was “no binding” each time.

B2: YFPc-MPK3 (enzyme, UniProt Q39023 1-370)
chain: B1 chain
Consider B2, for which the binding result in assay [3] was “no binding”.

B3: YFPn-MPK3 (enzyme, UniProt Q39023 1-370)
chain: B1 chain
Turning to B3, the binding entry in assay [4] is listed as “no binding”.

(Values after PMC4201148.)
